Patent US20160185797A1, “ALKYNYL ALCOHOLS AND METHODS OF USE” (Genentech, Inc., priority 2013, published 2016)

Chains of the proteins cited; added tags and fusions are not shown.
UniProt Q99558, whole entry: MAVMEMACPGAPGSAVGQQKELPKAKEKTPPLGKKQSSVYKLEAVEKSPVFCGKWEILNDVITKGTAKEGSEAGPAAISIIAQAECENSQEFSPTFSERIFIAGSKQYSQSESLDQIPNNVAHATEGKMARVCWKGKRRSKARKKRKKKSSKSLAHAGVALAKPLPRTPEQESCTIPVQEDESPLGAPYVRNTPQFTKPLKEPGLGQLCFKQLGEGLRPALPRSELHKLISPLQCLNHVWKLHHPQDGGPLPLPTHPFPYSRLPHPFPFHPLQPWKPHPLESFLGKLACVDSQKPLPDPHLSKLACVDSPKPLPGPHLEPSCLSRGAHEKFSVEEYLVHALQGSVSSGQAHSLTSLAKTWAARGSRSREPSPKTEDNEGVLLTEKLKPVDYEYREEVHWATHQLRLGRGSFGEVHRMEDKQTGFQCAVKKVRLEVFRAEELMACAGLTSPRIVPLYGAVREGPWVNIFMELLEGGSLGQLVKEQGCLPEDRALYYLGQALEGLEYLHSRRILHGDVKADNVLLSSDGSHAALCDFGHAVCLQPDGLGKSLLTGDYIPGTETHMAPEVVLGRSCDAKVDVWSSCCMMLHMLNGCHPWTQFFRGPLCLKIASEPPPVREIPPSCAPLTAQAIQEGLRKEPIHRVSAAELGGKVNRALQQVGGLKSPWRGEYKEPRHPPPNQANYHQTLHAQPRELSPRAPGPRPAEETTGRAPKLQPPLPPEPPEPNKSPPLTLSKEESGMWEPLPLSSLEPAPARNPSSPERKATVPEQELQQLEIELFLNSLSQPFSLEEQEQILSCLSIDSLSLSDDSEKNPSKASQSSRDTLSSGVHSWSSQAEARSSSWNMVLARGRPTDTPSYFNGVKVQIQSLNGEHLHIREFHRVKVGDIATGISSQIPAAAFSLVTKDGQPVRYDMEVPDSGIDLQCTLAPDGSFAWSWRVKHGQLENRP

Columns and labels:
[1] = system: REL-A (p65) nuclear translocation in HeLa cells; experiment: REL-A (p65) nuclear translocation assay in HeLa cells, TNF-α stimulated (classical NF-kB signaling), high content imaging; format: cell-based; details: read-out: REL-A HeLa Transloc Assay (IC50), compound 4.5 h, then 10 ng/mL TNF-α for 30 minutes
Procedure: Several assays were developed to profile the cellular activities of NIK inhibitors.
(2) A second set of cell assay are used to define the selectivity of NIK inhibitors toward inhibition of classical vs. non-classical NF-kB signaling and rely on quantification of the nuclear translocation of p52 (NF-kB2) and REL-A (p65) using high content cellular imaging. For the p52 (non-classical NF-kB signaling) nuclear translocation assay, HeLa cells are treated with different concentrations of compounds (0.2% DMSO final) in medium containing 10% fetal bovine serum and then stimulated with 100 ng/mL of an anti-lymphotoxin beta receptor antibody (R&D Systems) for 5 hours. In the REL-A nuclear translocation assay, HeLa cells are incubated with compounds (0.2% DMSO final) for 4.5 hours in medium containing 10% fetal bovine serum before stimulating them with 10 ng/mL tumor necrosis factor (TNF)-α (R&D Systems) for 30 minutes. […] Imaging is carried out using an Opera reader (Perkin Elmer) and data are analyzed with the aid of Acapella software (Perkin Elmer). The p52 or REL-Atranslocation into the nucleus is quantified by the ratio of the nuclear to cytoplasmic signal intensity. […]

[2] = target: nuclear factor-kappa B (NF-kB)-inducing kinase (NIK) (Homo sapiens, UniProt Q99558); experiment: NIK enzyme inhibition assay (Transcreener ADP fluorescence polarization, NIK ADP-FP); format: biochemical; details: read-out: NIK ADP-FP (Ki μM); purified NIK 0.5 nM, 10 μM ATP, pH 7.2; Ki from Morrison's quadratic equation
[3] = system: p52 (NF-kB2) nuclear translocation in HeLa cells; experiment: p52 (NF-kB2) nuclear translocation assay in HeLa cells, anti-lymphotoxin beta receptor antibody stimulated (non-classical NF-kB signaling), high content imaging; details: read-out: p52 HeLa Transloc Assay (IC50), 100 ng/mL anti-lymphotoxin beta receptor antibody for 5 hours

## CN1CC[C@@](O)(C#Cc2cccc(-c3nc(C(N)=O)cc4cccnc34)c2)C1=O
[1]
  IC50: ≥ 20000 nM
[2]
  Ki: 0.0031 µM
[3]
  IC50: 837 nM

The match of structure and compound is tentative.
